Measurements reported in patent publication US7029857B1, “Processes for obtaining compounds employing SNORF72 receptors” (H. Lundbeck A/S, priority 1999, dated 2006).
For part of these data: At least one compound was matched to its structure with a doubt left. Some of these results come from one statement about several compounds together. No end group written: not given here.

By UniProt entry, the sequences of proteins in these tests, tags left out. Where a name states a change or a piece, a line headed by the entry shows the natural chain unless it says otherwise.
UniProt Q9ESQ4: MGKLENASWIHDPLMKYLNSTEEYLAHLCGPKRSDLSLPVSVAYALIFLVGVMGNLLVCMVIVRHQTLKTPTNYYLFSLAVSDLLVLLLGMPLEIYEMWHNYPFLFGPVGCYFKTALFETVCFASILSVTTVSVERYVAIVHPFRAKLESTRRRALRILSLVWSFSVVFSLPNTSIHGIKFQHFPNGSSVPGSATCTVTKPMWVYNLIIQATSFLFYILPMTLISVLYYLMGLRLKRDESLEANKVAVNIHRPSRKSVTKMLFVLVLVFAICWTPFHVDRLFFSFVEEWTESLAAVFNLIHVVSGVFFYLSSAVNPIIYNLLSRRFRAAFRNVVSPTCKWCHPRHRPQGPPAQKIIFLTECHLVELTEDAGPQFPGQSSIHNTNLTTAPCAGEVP
UniProt Q9GZQ4, whole entry A395T: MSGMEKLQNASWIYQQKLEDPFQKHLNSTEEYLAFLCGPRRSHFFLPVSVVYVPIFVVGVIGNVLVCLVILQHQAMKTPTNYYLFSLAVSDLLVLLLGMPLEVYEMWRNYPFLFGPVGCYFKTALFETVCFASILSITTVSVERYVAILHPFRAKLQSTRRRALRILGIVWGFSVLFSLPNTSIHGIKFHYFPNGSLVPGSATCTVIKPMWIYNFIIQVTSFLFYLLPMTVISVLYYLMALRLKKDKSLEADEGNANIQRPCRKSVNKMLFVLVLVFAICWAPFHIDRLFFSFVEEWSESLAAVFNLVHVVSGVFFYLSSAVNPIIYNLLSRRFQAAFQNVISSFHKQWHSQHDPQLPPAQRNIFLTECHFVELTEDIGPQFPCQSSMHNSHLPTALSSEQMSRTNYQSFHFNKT

Columns and labels:
rat SNORF72 = molecular target: T1, rat SNORF72 (Rattus norvegicus, UniProt Q9ESQ4); assay: Intracellular Ca2+ release (FLIPR) in rat SNORF72-transfected COS-7 cells; type: cell-based; conditions: dose dependent
T1 construct: corresponding to a predicted protein of 395 amino acids; expressed in transfected cells; host or cells: COS-7 (transient)
Procedure: A typical protocol for the DEAE-dextran method as applied to COS-7 and HEK293 cells is described as follows. Cells to be used for transfection are split 24 hours prior to the transfection to provide flasks which are 70–80% confluent at the time of transfection. Briefly, 8 μg of receptor DNA plus 8 μg of any additional DNA needed (e.g. Gα protein expression vector, reporter construct, antibiotic resistance marker, mock vector, etc.) are added to 9 ml of complete DMEM plus DEAE-dextran mixture (10 mg/ml in PBS). Cells plated into a T225 flask (sub-confluent) are washed once with PBS and the DNA mixture is added to each flask. The cells are allowed to incubate for 30 minutes at 37° C., 5% CO2. Following the incubation, 36 ml of complete DMEM with 80 μM chloroquine is added to each flask and allowed to incubate an additional 3 hours. […]
In another method, the measurement of intracellular Ca^2+ can also be performed on a 96-well (or higher) format and with alternative Ca^2+-sensitive indicators, preferred examples of these are: aequorin, Fluo-3, Fluo-4, Fluo-5, Calcium Green-1, Oregon Green, and 488 BAPTA. After activation of the receptors with agonist ligands the emission elicited by the change of intracellular Ca^2+ concentration can be measured by a luminometer, or a fluorescence imager; a preferred example of this is the fluorescence imager plate reader (FLIPR™, Molecular Devices). […]

SNORF72 [1] = molecular target: T2, SNORF72 (Homo sapiens, UniProt Q9GZQ4, A395T); assay: Saturation binding of radioligands to SNORF72-transfected COS-7 membranes; conditions: data not shown
T2 construct: expressed in transfected cells; host or cells: COS-7 (transient, DEAE-dextran)
Procedure: COS-7 cells were transiently transfected with SNORF72 and membranes were prepared as described in Materials and Methods. […] Results presented are representative of 2 experiments performed in duplicate.
(§1) Cell membranes expressing the receptor protein of this invention are useful for certain types of assays including but not restricted to ligand binding assays, GTP-γ-S binding assays, and others. The specifics of preparing such cell membranes may in some cases be determined by the nature of the ensuing assay but typically involve harvesting whole cells and disrupting the cell pellet by sonication in ice cold buffer (e.g. 20 mM Tris HCl, mM EDTA, pH 7.4 at 4° C.). The resulting crude cell lysate is cleared of cell debris by low speed centrifugation at 200×g for 5 min at 4° C. […] Protein concentrations are determined by the method of Bradford (1976) using bovine serum albumin as a standard. […]
(§2) Radioligand binding assays were performed by diluting membranes prepared from cells expressing the receptor in 50 mM Tris buffer (pH=7.4 at 0° C.) containing 0.1% bovine serum albumin (Sigma), aprotinin (0.005 mg/ml, Boehringer Mannheim) and bestatin (0.1 mM, Sigma) as protease inhibitors. […] After addition of Ready Safe (Beckman) scintillation fluid, bound radioactivity was quantitated using a Trilux (Wallac) scintillation counter (approximately 40% counting efficiency of bound counts). […]

SNORF62 [2] = molecular target: T3, SNORF62 (Homo sapiens, UniProt Q9HB89); assay: Saturation binding of radioligands to SNORF62-transfected COS-7 membranes; design: The SNORF62 cDNA codes for a protein of 426 amino acids; expressed in transfected cells; host or cells: COS-7 (transient, DEAE-dextran); conditions: data not shown
T3 sequence (Q9HB89 1-426): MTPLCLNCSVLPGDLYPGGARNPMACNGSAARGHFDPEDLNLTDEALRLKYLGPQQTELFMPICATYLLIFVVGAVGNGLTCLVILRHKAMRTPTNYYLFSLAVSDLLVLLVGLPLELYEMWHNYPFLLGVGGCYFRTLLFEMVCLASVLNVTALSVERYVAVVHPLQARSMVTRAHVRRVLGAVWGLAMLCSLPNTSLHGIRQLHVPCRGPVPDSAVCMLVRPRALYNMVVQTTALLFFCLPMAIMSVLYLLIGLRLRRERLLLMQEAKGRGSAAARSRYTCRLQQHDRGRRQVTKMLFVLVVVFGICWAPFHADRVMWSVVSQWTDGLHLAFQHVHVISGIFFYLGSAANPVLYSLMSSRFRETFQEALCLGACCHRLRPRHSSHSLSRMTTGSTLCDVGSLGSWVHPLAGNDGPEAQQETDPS
Procedure: COS-7 cells were transiently transfected with SNORF62 and membranes were prepared as described in Materials and Methods. […] Results are representative of 2 experiments performed in duplicate.
as §1, §2

SNORF72 [3] = molecular target: T2, SNORF72; assay: Displacement of [125I]rat NMU-23 binding in SNORF72-transfected COS-7 membranes; conditions: displacement of [125I]rat NMU-23 (0.05-0.1 nM), n = 2 (Table 2)
Procedure: (§3) The specifics of preparing such cell membranes may in some cases be determined by the nature of the ensuing assay but typically involve harvesting whole cells and disrupting the cell pellet by sonication in ice cold buffer (e.g. 20 mM Tris HCl, mM EDTA, pH 7.4 at 4° C.). The resulting crude cell lysate is cleared of cell debris by low speed centrifugation at 200×g for 5 min at 4° C. The cleared supernatant is then centrifuged at 40,000×g for 20 min at 4° C., and the resulting membrane pellet is washed by suspending in ice cold buffer and repeating the high speed centrifugation step. The final washed membrane pellet is resuspended in assay buffer. Protein concentrations are determined by the method of Bradford (1976) using bovine serum albumin as a standard. The membranes may be used immediately or frozen for later use.
as §2, with “inhibitors. The final protein concentration in the assay was 12–40 μg/ml.” for “inhibitors.”

SNORF62 [4] = molecular target: T3, SNORF62; assay: Displacement of [125I]rat NMU-23 binding in SNORF62-transfected COS-7 membranes; design: The SNORF62 cDNA codes for a protein of 426 amino acids; expressed in transfected cells; host or cells: COS-7 (transient, DEAE-dextran); conditions: displacement of [125I]rat NMU-23 (0.05-0.1 nM), n = 2 (Table 2)
Procedure: as §3
as §2, with “inhibitors. The final protein concentration in the assay was 12–40 μg/ml.” for “inhibitors.”

CC(C)C[C@H](NC(=O)[C@H](Cc1ccccc1)NC(=O)[C@@H](N)Cc1ccc(O)cc1)C(=O)N[C@@H](Cc1ccccc1)C(=O)N[C@@H](CCCNC(=N)N)C(=O)N1CCC[C@H]1C(=O)N[C@@H](CCCNC(=N)N)C(=O)N[C@@H](CC(N)=O)C(N)=O [porcine NMU-8, Y F L F R P R N—NH2]
concentration reaching maximal stimulation of intracellular Ca2+ (rat SNORF72): below 100 nM

[^125I]rat NMU-23: radioiodinated rat NMU-23 radioligand (NEN, specific activity 2200 Ci/mmole) (YKVNEYQGPVAPSGGFFLFRPRN)
time to reach binding equilibrium (SNORF72 [1]): ≤ 30 min
time to reach binding equilibrium (SNORF62 [2]): ≤ 30 min

YKVNEYQGPVAPSGGFFLFRPRN-NH2 [rat NMU-23, YKVNEYQGPVAPSGGFFLFRPRN—NH2]
concentration reaching maximal stimulation of intracellular Ca2+ (rat SNORF72): below 100 nM

APSEPHHPGDQATQDQLAQYYSDLYQYITFVTRPRF-NH2 (C-terminus assumed) [frog PP]
SNORF72 Avg pKi (SNORF72 [3]): <5
SNORF62 Avg pKi (SNORF62 [4]): <5
